Reference: PubChem BioAssay AID2685 (National Center for Advancing Translational Sciences (NCATS), 2010)
The list shows a part of the results. These are further read-outs of the screen, such as a control signal, another cell line or another target. No call is given for them. Most of these compounds were active or inconclusive in the main read-out, so they are no random draw. The note in brackets gives the kind of curve behind each potency; many fits are weak.

Assay: qHTS Assay for Lipid Storage Modulators in Drosophila S3 Cells;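 for cell number change: cells counted by Cell Tracker Red CMTPX staining in the red channel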
Conditions: BODIPY lipid droplet fluorescence, 18-24 h; for cell number change: measured here: cell count max response, cells fed with added oleic acid
In short: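 Laser-scanning cytometry quantifies lipid droplet accumulation (500–530 nm total intensity; droplet/cell object ratio) in oleic acid-fed (400 uM added) Drosophila S3 cells treated with a concentration series. 20 uM Triacsin C defined 100% inhibition.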

[1] = measured here: cell number channel AC50, cells fed with added oleic acid
[2] = measured here: lipid fluorescence (Fed channel) AC50, cells fed with added oleic acid

Compound	cell number change	AC50 [1]	AC50 [2]
O=C(Cn1nc(C(=O)O)c2ccccc2c1=O)NCc1ccco1	13.1%	0.82 µM [falling, single point]	0.103 µM [falling, full curve, poor fit]
S=C(NCc1ccccc1)Nc1ccncc1	-52%	16.4 µM [falling, partial curve, poor fit]	0.116 µM [falling, full curve, poor fit]
Cc1cccc(C(=O)NNC(=O)CSc2nnc(C(C)C)n2C)c1	-15.4%	0.146 µM [falling, full curve, poor fit]	–
Cc1ccc(-c2nnc3sc(CCc4ccccc4)nn23)cc1	–	–	1.64 µM [rising, partial curve]
COc1ccc(-c2cc3cc(OC)c(OC)cc3c(C)n2)cc1C	9.8%	–	1.46 µM [falling, full curve, poor fit]
O=C(Oc1ccccc1)c1cccc2cccc(C(=O)Oc3ccccc3)c12	6.32%	–	29.1 µM [falling, single point]
CCOC(=O)c1ccc(/C=N/O)[n+](Cc2ccccc2)c1	5.7%	–	0.651 µM [falling, single point]
COc1ccc(/C=C/C(=O)c2ccc3ccccc3c2O)cc1CN1CCOCC1	–	–	29.1 µM [rising, single point]
Cc1nc2cc(NC(=O)COc3ccc(C#N)cc3)ccc2n1-c1ccccc1	-26.7%	–	16.4 µM [falling, partial curve, poor fit]
C=CCn1c(SCC(=O)NC23CC4CC(CC(C4)C2)C3)nc2cc(C(=O)O)ccc2c1=O	35.5%	29.1 µM [rising, single point]	–
COc1cccc(Cn2cc(C(=O)NCCN(C)C)nn2)c1	-42.9%	29.1 µM [falling, single point]	–
COc1ccc([N+](=O)[O-])cc1NC(=O)CN(C)S(=O)(=O)c1ccccc1	12.9%	2.06 µM [rising, partial curve, poor fit]	3.66 µM [rising, single point]
CCN1CCN(C(=O)N2CCOCC2)CC1	-11.5%	–	0.291 µM [falling, partial curve, poor fit]
C/C(=N\Nc1cccc([N+](=O)[O-])c1)c1cc2ccccc2o1	-25.2%	–	0.731 µM [falling, single point]
CC(C)Sc1nc2sc3c(c2c2nnc(SCC(=O)NCc4ccco4)n12)CCCC3	–	1.84 µM [rising, partial curve]	0.651 µM [rising, single point]
COc1ccc(S(=O)(=O)NC(C)C(=O)NCc2cccnc2)cc1OC (stereo not given)	16.8%	–	–
O=C(N/N=C/c1sc(N2CCCCC2)nc1-c1cccs1)c1cccnc1	-27.4%	–	–
COc1ccc(C(NC(=O)CC(C)C)NC(=O)CC(C)C)cc1OC	-0.817%	–	–
CC(=O)N1C[C@H](O)C[C@H]1C(=O)O	-38.2%	29.1 µM [falling, single point]	29.1 µM [falling, single point]
CCc1ccc(-n2cccc2/C=C2/C(=N)N3C(=NC2=O)SN=C3S(C)(=O)=O)cc1	–	–	29.1 µM [rising, single point]

Compound	cell number change	AC50 [1]	AC50 [2]
COc1ccc(CCNC2=NCC(C)S2)cc1 (stereo not given)	-18.2%	–	14.6 µM [falling, partial curve]
COc1ccc(CCNC2=C(Cl)C(=O)N(CCc3ccc(OC)c(OC)c3)C2=O)cc1OC	21.4%	–	6.51 µM [rising, partial curve]
Cc1ccc(C)c(CN2C(=O)NC3(CCCCCC3)C2=O)c1	–	6.51 µM [rising, single point]	29.1 µM [rising, single point]
CC(O)CNc1nc2c(c(=O)n(Cc3cccc(Cl)c3)c(=O)n2C)n1C (stereo not given)	10.6%	–	–
CCOC(=O)c1sc(NC(=O)Nc2ccccc2)cc1C	-53.9%	29.1 µM [falling, single point]	1.3 µM [falling, single point]
COc1cccc(Cn2cccc(NC(=O)Nc3ccccc3C)c2=O)c1	-30.9%	18.4 µM [falling, single point]	18.4 µM [falling, single point]
O=C(NNC(=S)Nc1ccc(Cl)c(Cl)c1)c1cccc([N+](=O)[O-])c1	3.99%	–	0.103 µM [falling, full curve, poor fit]
Cc1ccc(C2=NCN(c3ccc(C(=O)O)cc3)C(=S)N2)cc1	-2.28%	–	0.731 µM [falling, partial curve, poor fit]
COc1ccccc1N1CCN(S(=O)(=O)c2ccc3nc(-c4ccccc4)[nH]c3c2)CC1	41.6%	7.31 µM [rising, single point]	20.6 µM [rising, single point]
COC(=O)CN1CCN(C(=O)c2ccc(F)cc2)c2ccccc2C1	12.7%	–	0.103 µM [falling, full curve, poor fit]
C/C(=N\NC(=O)c1cc(-c2ccncc2)nc2ccccc12)c1ccc(N2CCOCC2)cc1	33.1%	11.6 µM [rising, partial curve, poor fit]	–
Cc1nnc(NC(=O)CSc2ccc3nnc(-c4cccnc4)n3n2)s1	33.9%	29.1 µM [rising, single point]	1.16 µM [rising, full curve]
COc1ccc(S(=O)(=O)Nc2c(NC3CCCCC3)c3ccccc3oc2=O)cc1	-49.8%	29.1 µM [falling, single point]	–
O=c1c(CN2CCN(c3ccccn3)CC2)coc2ccccc12	-35.5%	7.31 µM [falling, partial curve, poor fit]	29.1 µM [rising, single point]
COc1ccc(NC(=O)CCn2c(=O)c3cccn3c3ccccc32)c(OC)c1	-23.6%	–	0.461 µM [rising, partial curve, poor fit]
COc1cc(CN2CCCC(N3CCN(c4ccccc4C)CC3)C2)ccc1O (stereo not given)	14.5%	–	–
COc1ccccc1CCC(=O)Nc1ccc(OC)c(S(=O)(=O)N2CCOCC2)c1	30.1%	23.1 µM [rising, single point]	2.06 µM [rising, single point]
Cc1[nH]nc(-c2ccc(O)c(C)c2O)c1-c1cnn(-c2ccccc2)c1	-12.2%	–	0.0366 µM [rising, full curve, poor fit]
Cc1nc2ccccc2c2nc3ccccc3n12	1.5%	–	18.4 µM [rising, partial curve]
CC1(CCc2ccccc2)NC(=O)N(CC(=O)Nc2ccc(S(N)(=O)=O)cc2)C1=O (stereo not given)	-3.79%	–	20.6 µM [falling, partial curve, poor fit]

Fetched one by one from the list above, 2 records:
Compound	cell number change	AC50 [1]	AC50 [2]
COc1cc(CN2CCCC(N3CCN(c4ccccc4C)CC3)C2)ccc1O (stereo not given)	14.5%	–	–
Cc1ccc(C)c(CN2C(=O)NC3(CCCCCC3)C2=O)c1	–	6.51 µM [rising, single point]	29.1 µM [rising, single point]

More structures follow:

Compound	cell number change	AC50 [1]	AC50 [2]
CCNC(=O)/C(C#N)=C/c1c(N2CCN(c3ccc(OC)cc3)CC2)nc2c(C)cccn2c1=O	-6.31%	0.411 µM [falling, single point]	–
CCCCC1CCC(/C(N)=N/O)CC1 (stereo not given)	9.29%	–	29.1 µM [rising, single point]
CC(C)CCn1c(SCCc2ccccc2)nc2c1c(=O)[nH]c(=O)n2C	-33.3%	0.517 µM [rising, full curve]	0.82 µM [rising, full curve]
CCN(CC)Cc1c(C(=O)N/N=C/c2ccncc2)nnn1-c1nonc1N	-10.8%	–	–
Cc1ccc2oc(=O)n(CC(=O)O)c2c1	-9.99%	–	7.31 µM [rising, partial curve, poor fit]
CC(C)N(C)Cc1nnnn1CC(=O)NCCc1cccc(C(F)(F)F)c1	-4.67%	–	1.03 µM [falling, full curve]
CC(C)(CNC(=O)C1CCCN1C(=O)c1cccs1)N1CCOCC1 (stereo not given)	–	–	29.1 µM [falling, partial curve, poor fit]
COc1cccc(C(C(=O)NC2CCCCC2)N(Cc2ccco2)C(=O)c2ccccn2)c1 (stereo not given)	-35.9%	–	0.0731 µM [rising, partial curve, poor fit]
O=C(CC(C(=O)O)C1CCCO1)NCc1ccccc1 (stereo not given)	-32.8%	29.1 µM [falling, single point]	25.9 µM [falling, single point]
CCNc1ccc2c(Cl)cc(=O)oc2c1	–	0.731 µM [falling, single point]	–
COc1ccccc1NC(=O)C(CCS(C)(=O)=O)N1C(=O)c2ccccc2C1=O (stereo not given)	-8.91%	–	20.6 µM [falling, partial curve]
COCCNC(=O)C(c1ccc(F)cc1)N(Cc1ccco1)C(=O)CCC(=O)Nc1nccs1 (stereo not given)	-2.02%	0.082 µM [rising, full curve, poor fit]	11.6 µM [rising, partial curve, poor fit]
CC(C(=O)Oc1ccc2c(c1)OCO2)N1C(=O)c2ccccc2C1=O (stereo not given)	9.76%	0.103 µM [rising, full curve, poor fit]	–
COC(=O)C1CCN(C(=O)COC(=O)CNC(=O)c2ccc(Cl)cc2Cl)CC1	-6.81%	–	0.82 µM [rising, full curve]
CCCOc1cccc(C(=O)N(Cc2ccc(OC)c(OC)c2)C2CCS(=O)(=O)C2)c1 (stereo not given)	63%	–	–
CCOc1cccc(C(=O)Nc2ccc(NC(=O)c3ccccc3)c(C)c2)c1	-9.09%	–	–
O=c1[nH]c(=O)n(CCO)c2nnn(Cc3ccccc3)c12	7.1%	–	–
Cc1cccc(-c2noc(CN(C)C(=O)c3ccoc3C)n2)c1	19.3%	–	29.1 µM [rising, single point]

Already shown: two of the compounds above.
Compound	cell number change	AC50 [1]	AC50 [2]
COc1cccc(Cn2cc(C(=O)NCCN(C)C)nn2)c1	-42.9%	29.1 µM [falling, single point]	–
COc1ccc([N+](=O)[O-])cc1NC(=O)CN(C)S(=O)(=O)c1ccccc1	12.9%	2.06 µM [rising, partial curve, poor fit]	3.66 µM [rising, single point]
